Reference: PubChem BioAssay AID662 (National Center for Advancing Translational Sciences (NCATS), 2007)
“And” between values parts separate entries of the source, which are not always exact repeats. Equal values may be shown once. The list shows a part of the results. Further columns of the screen follow, without active or inactive calls. Most of these compounds were active or inconclusive in the main read-out, so they are no random draw. Words in brackets tell the shape of the fitted curve; partial curves, single points and poor fits give uncertain potencies.

Experiment: Cell signaling CRE-BLA (Fsk stim)
Conditions: CHO CRE-bla reporter (cAMP response element driving beta-lactamase), forskolin EC10, beta-lactamase ratio; measured here: 460 nm blue channel
Outline: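 Modulation of forskolin-driven signalling is measured in CHO cells carrying a CRE-controlled beta-lactamase reporter. Cells are stimulated with EC10 NKH 477 in the presence of titrated compound for 3 h at 37 °C, then loaded with CCF4 for 2 h at room temperature.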

| Structure (SMILES) | AC50 |
| --- | --- |
| CC1=C(C(=O)OC2CCCCCCC2)C(c2cccc(O)c2)NC(=O)N1 (configuration not stated) | 0.398 µM [rising, partial curve] |
| O=C(COC(=O)C1CC1)c1c[nH]c2ccccc12 | 7.94 µM [falling, partial curve] |
| CN(CCNC(=O)c1cc2c(=O)n(C)c3ccccc3c2n1C)Cc1ccccc1 | 5.01 µM [rising, full curve] |
| CN1CCN(c2ncc3nc(-c4ccccc4)c(=O)n(CCc4ccccc4)c3n2)CC1 | 12.6 µM [rising, partial curve] |
| Cc1cc(C(=O)N(C)CC(=O)Nc2ccccc2C(F)(F)F)c(C)o1 | 5.01 µM [falling, single point] |
| COc1ccc(CNc2ncnc3ccc(-c4ccccc4C#N)cc23)c(OC)c1 | 2.51 µM [rising, full curve] |
| COc1cccc(NS(=O)(=O)c2ccc3[nH]cc(C(=O)NCCN4CCOCC4)c(=O)c3c2)c1 | 0.0251 µM [falling, full curve, poor fit] |
| COCCn1c(=O)c(-c2cccs2)nc2cnc(OCc3ccccc3)nc21 | 3.16 µM [rising, partial curve] |
| Cc1[nH]c(C)c(C(=O)O)c1CNC1CCCCC1C (configuration not stated) | 0.0794 µM [falling, partial curve] |
| CC(=O)Nc1sc2c(c1C(c1cccs1)N1CCOCC1)CCCC2 (configuration not stated) | 0.251 µM [falling, full curve] |
| CCOc1ccc2c(c1)C(C)=CC(C)(C)N2 | 15.8 µM [rising, partial curve] |
| COc1ccc(OC)c(-c2nnc(-c3ccc(C)o3)o2)c1 | 25.1 µM [rising, single point] |
| CCn1nc(NC(=O)c2ccncc2)c2cc3ccc(C)cc3nc21 | 1 µM [rising, partial curve] |
| Cc1ccc(C)c(N2CCN(C(=O)C3CCN(c4nc(C)cc(C)n4)CC3)CC2)c1 | 10 µM [falling, single point] |
| O=C(CCS(=O)(=O)c1ccc(Br)cc1)N1CCN(Cc2ccccc2)CC1 | 0.631 µM [falling, full curve] |
| CSc1nsc(SCc2ccc(F)cc2)n1 | 3.16 µM [rising, single point] |
| COC(=O)c1cc(CSc2nc3ccc(C)cc3[nH]2)oc1C | 0.2 µM [rising, full curve] |
| COc1ccc(CN(C(=O)c2ccco2)c2ccc(Br)cc2)cc1OC | 7.94 µM [rising, partial curve] |
| CCCCN1C(=O)C(O)(CC(=O)c2c(C)n[nH]c2C)c2cc(Br)ccc21 (configuration not stated) | 31.6 µM [falling, single point] |
| Cn1c(=O)c2[nH]c(C3CCCC3)nc2n(C)c1=O | 31.6 µM [falling, single point] |
| CCOc1ccc(N2CC(=O)SC2=S)cc1 | 31.6 µM [falling, single point] |
| CCS(=O)(=O)c1ccc2oc(SCC(=O)c3ccco3)nc2c1 | 12.6 µM [rising, partial curve] |
| c1ccc(-n2nnnc2SCc2cn3ccccc3n2)cc1 | 10 µM [rising, single point] |

Molecules shown so far containing two or more sulfur atoms, in the order listed:

| Structure (SMILES) | AC50 |
| --- | --- |
| CC(=O)Nc1sc2c(c1C(c1cccs1)N1CCOCC1)CCCC2 (configuration not stated) | 0.251 µM [falling, full curve] |
| CSc1nsc(SCc2ccc(F)cc2)n1 | 3.16 µM [rising, single point] |
| CCOc1ccc(N2CC(=O)SC2=S)cc1 | 31.6 µM [falling, single point] |
| CCS(=O)(=O)c1ccc2oc(SCC(=O)c3ccco3)nc2c1 | 12.6 µM [rising, partial curve] |

The listing continues.

| Structure (SMILES) | AC50 |
| --- | --- |
| CCOC(=O)CSc1nc2cc(C)ccc2cc1C#N | 0.794 µM [rising, full curve, poor fit] |
| N=c1n(CCN2CCOCC2)c2ccccc2n1CC(=O)c1ccc(Cl)c(Cl)c1 | 25.1 µM [falling, single point] |
| Cn1nc(C(C)(C)C)cc1C(=O)Nc1nc2c(s1)C(=O)CC(C)(C)C2 | 12.6 µM [rising, single point] |
| CC1CN(c2oc(-c3ccco3)nc2C#N)CC(C)O1 (configuration not stated) | 7.94 µM [rising, partial curve, poor fit] |
| O=C(c1cc(-c2ccc(F)cc2)on1)N1CCCC1 | 25.1 µM [rising, single point] |
| CC1CCCN(C(=O)CN2C(=O)c3ccccc3C2=O)C1 (configuration not stated) | 0.2 µM [falling, full curve] |
| COc1ccc2c(CC(=O)NCc3ccc4c(c3)OCO4)coc2c1 | 0.251 µM [falling, full curve, poor fit] |
| Cn1c(=O)c(-c2cccs2)nc2cnc(Oc3ccccc3)nc21 | 10 µM [rising, partial curve] |
| CN(C)c1ncc2nc(CCc3ccccc3)c(=O)n(C3CC3)c2n1 | 10 µM [rising, partial curve] |
| COC(=O)c1ccccc1NC(=O)CSc1nnnn1-c1ccc(C)cc1C | 12.6 µM [rising, single point] |
| Cc1cccc(CNc2nc(-c3c(C)noc3C)nc3ccccc23)c1 | 3.98 µM [rising, single point] |
| CCn1c(SCC(=O)N2CCCc3ccccc32)nc2cccnc21 | 10 µM [rising, partial curve] |
| CCn1c(CCNC(=O)c2ccc(Cl)cc2)nnc1SCC(=O)NC1CCCC1 | 0.00398 µM [falling, full curve, poor fit] |
| CCOc1ccc2[nH]c(C)c(CN3CCN(CC)CC3)c(=O)c2c1 | 0.1 µM [falling, full curve] |
| COc1ccc(-n2c(=O)c3c4c(sc3n3c(C)nnc23)COC(C(C)C)C4)cc1 (configuration not stated) | 15.8 µM [rising, partial curve, poor fit] |
| CCOC(=O)N1CCN(S(=O)(=O)c2ccc(C(=O)Nc3ccc(F)cc3F)cc2)CC1 | 12.6 µM [rising, single point] |
| Cn1c(SCc2nc3ccccc3[nH]2)nnc1-c1ccccn1 | 25.1 µM [rising, single point] |
| CCOc1ccc(NS(=O)(=O)c2ccc3[nH]cc(C(=O)NCCOC)c(=O)c3c2)cc1 | 15.8 µM [falling, partial curve, poor fit] |
| COc1ccc(CN2C(=O)[C@@H]3C(c4ccc(F)cc4)=NO[C@@H]3C2=O)cc1 | 12.6 µM [rising, single point] |
| Cc1cccc(N2CCN(C(=O)Cn3ccc4ccccc4c3=O)CC2)c1C | 1 µM [falling, full curve] |
| COc1ccccc1C(=O)NCCn1cc(SCC(=O)Nc2nnc(C)s2)c2ccccc21 | 1 µM [rising, full curve] |
| OC(COc1ccc2c(c1)OCO2)CN1CCc2ccccc2C1 (configuration not stated) | 5.01 µM [falling, partial curve] |
| COc1ccc(NS(=O)(=O)c2ccc3c(c2)CCC(=O)N3)c(OC)c1 | 0.501 µM [falling, partial curve] |

| Structure (SMILES) | AC50 |
| --- | --- |
| CC(C)Cn1c(N)c(C(=O)CSc2ccc3c(c2)OCCO3)c(=O)n(C)c1=O | 6.31 µM [falling, single point] |
| CCOC(=O)c1c(NC(=O)c2cccs2)sc2c1CCC2 | 3.16 µM [rising, full curve] |
| O=c1c(O)c(-c2ccc(O)c(O)c2)oc2cc(O)ccc12 | 25.1 µM [rising, partial curve] |
| CCN(CC)CCC[C@H](C)Nc1c2ccc(Cl)cc2nc2ccc(OC)cc12 | 25.1 µM [rising, partial curve] and 7.94 µM [rising, partial curve] |
| COc1ccc(-c2nc(C(N)=O)c3[nH]c(=O)n(-c4cccc(Cl)c4)c3n2)cc1OC | 15.8 µM [rising, partial curve] |
| CCOc1cc(-c2cc(-c3ccc(N)cc3)nc(N)c2C#N)ccc1O | 3.16 µM [rising, full curve] |
| COc1cc(NC(=O)c2ccco2)c(OC)cc1NC(=O)CSc1nnc(-c2cccs2)n1C | 3.16 µM [rising, full curve] |
| COc1ccc2nc(C)c3cc(C)oc3c2c1 | 10 µM [rising, partial curve] |
| O=c1c(-c2ccc(F)cc2)nc2cnc(N3CCOCC3)nc2n1CCc1ccccc1 | 0.501 µM [rising, full curve] |
| CCOC(=O)/C(N=O)=C(\O)C1CCN(C(=O)OCC)CC1 | 10 µM [falling, partial curve] |
| C[C@@]12CC[C@@H]3c4ccc(O)cc4C[C@H](CCCCCCCCCS(=O)CCCC(F)(F)C(F)(F)F)[C@H]3[C@@H]1CC[C@@H]2O (some centres not stated) | 0.126 µM [rising, full curve] |
| c1coc(CNc2nc(-c3ccncc3)cs2)c1 | 31.6 µM [falling, single point] |
| CCOC(=O)CCNC(=O)Nc1ccc2nc(C)n(Cc3ccc(Cl)cc3)c(=O)c2c1 | 5.01 µM [falling, single point] |
| COc1ccc2[nH]cc(CCNc3cc(-c4ccoc4)ncn3)c2c1 | 7.94 µM [rising, partial curve] |
| CCc1c(C)c2ccc(OCC(=O)N(C)C)c(C)c2oc1=O | 12.6 µM [rising, partial curve] |
| Cn1c(NCCO)nc2c(c1=O)C1(CCCCC1)Cc1ccccc1-2 | 10 µM [rising, partial curve] |
| CCc1ccccc1NC(=O)CN(c1cccc(OC)c1)S(C)(=O)=O | 1 µM [falling, full curve] |
| Cc1cccc2cc(CN(Cc3cccs3)C(c3nnnn3C3CCCC3)C(C)C)c(=O)[nH]c12 (configuration not stated) | 0.398 µM [rising, full curve, poor fit] |
| CCCOCCOC(=O)c1[nH]c2c(c1C)C(=O)CC(c1cc(OC)ccc1OC)C2 (configuration not stated) | 2 µM [rising, full curve] |
| CCCCn1ccc(=O)c2c(C(F)(F)F)nccc21 | 1 µM [rising, single point] |
| O=C(CSc1nc2nc(-c3cccs3)cc(C(F)(F)F)c2c(=O)[nH]1)NCc1ccco1 | 10 µM [rising, single point] |
